Test results reported in PubChem BioAssay AID1671190 (National Center for Advancing Translational Sciences (NCATS), 2021).
Values joined by “and” are separate entries in the source; they are usually repeats but may differ in a detail not shown here. Identical values can stand only once. In all, about 580,000 compounds went through this assay and about 6,100 (1.1%) were called active. Inconclusive means that the source gave no clear call. Such entries were picked first, then a sample of the others. The call rests on the fitted dose curve; in most records, active means well fitted inhibition curve with a large enough effect; inconclusive means small, poorly fitted or top-dose-only effect, or another doubt; inactive means no such curve, though single readings can be large or run the other way. Potencies of inconclusive entries are doubtful fits and often do not repeat.

The chains behind the UniProt entries cited, without tags or fusion partners.
UniProt P18054, whole entry, looked up: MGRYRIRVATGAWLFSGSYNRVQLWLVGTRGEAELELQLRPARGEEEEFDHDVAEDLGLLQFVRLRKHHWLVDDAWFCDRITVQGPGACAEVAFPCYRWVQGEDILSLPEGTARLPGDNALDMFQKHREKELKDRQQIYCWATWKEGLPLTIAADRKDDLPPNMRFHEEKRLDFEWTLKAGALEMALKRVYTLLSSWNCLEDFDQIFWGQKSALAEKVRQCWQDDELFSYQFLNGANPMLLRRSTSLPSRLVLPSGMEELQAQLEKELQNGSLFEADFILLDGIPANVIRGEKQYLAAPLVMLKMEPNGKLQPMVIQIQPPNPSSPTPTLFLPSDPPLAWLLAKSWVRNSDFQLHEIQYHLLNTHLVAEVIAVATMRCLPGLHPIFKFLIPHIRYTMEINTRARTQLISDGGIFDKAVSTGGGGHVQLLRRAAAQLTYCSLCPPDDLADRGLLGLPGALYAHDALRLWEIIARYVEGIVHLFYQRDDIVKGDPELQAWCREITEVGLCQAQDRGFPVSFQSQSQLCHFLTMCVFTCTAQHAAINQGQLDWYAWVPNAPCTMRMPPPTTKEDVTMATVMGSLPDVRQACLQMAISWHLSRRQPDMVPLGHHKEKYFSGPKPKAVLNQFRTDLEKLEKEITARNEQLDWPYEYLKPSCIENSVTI

Target: Polyunsaturated fatty acid lipoxygenase ALOX12 (Homo sapiens) (UniProt P18054)
Assay: Primary qHTS assay for inhibitors of human arachidonate 12S-lipoxygenase (ALOX12): Round 2
Conditions: purified 12hLO, xylenol orange hydroperoxide absorbance; activity change, negative = inhibition: at 108 µM (top of the series) unless noted
Outline: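 Purified human 12hLO (150 nM final) in 25 mM Hepes, 0.01% Triton X-100, pH 7.0 was preincubated 15 min at room temperature with compound. Then 40 uM arachidonic acid was added, 30 min. Hydroperoxide was read by Fe-XO absorbance ratio 573/405 nm.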
On the % scale 0 is the no-effect control and ±100 the full control effect; potency means the concentration at half of the fitted maximal effect.

SMILES | Potency | activity change, negative = inhibition
S=C1SCN(Cc2ccccn2)CN1Cc1ccco1 | inconclusive: 31.6 µM [inhibitor, partial curve] | 
Cc1cc(C)c(S(=O)(=O)c2ccccc2)c(Cl)n1 |  | inactive: 0%
CCc1cc(C(=O)OC)c(N)s1 | inconclusive: 7.08 µM [inhibitor, full curve, poor fit] | 
CCN(CC(=O)Nc1ccc(Cl)c(C(F)(F)F)c1)CC(=O)NC1CCS(=O)(=O)C1 (stereo not given) |  | inactive: -6.21%
O=C(NCCCN1CCOCC1)c1cccc(S(=O)(=O)NCc2ccccc2)c1 |  | inactive: -9.93%
Cn1sccc1=O |  | inactive: -2.62%
CC(=O)c1ccc(OC2(C)CCN(CCOc3ccc(C)cc3)C2)cc1 (stereo not given) | inconclusive: 44.7 µM [inhibitor, partial curve, poor fit] | 
CCOC(=O)c1c(N)sc2c1CCS(=O)(=O)C2 | inconclusive: 50.1 µM [inhibitor, partial curve, poor fit] | 
CNC(=S)NCCC(c1ccccc1)c1ccccc1 | inconclusive: 50.1 µM [inhibitor, partial curve, poor fit] | 
CCc1c(C(=O)NC(C)c2ccc(OC)c(OC)c2)csc1C (stereo not given) | inconclusive: 100 µM [inhibitor, single point] | 
CCOC(=O)CSc1ncc(OC)c(Sc2ccc(OC)cc2)n1 | inconclusive: 1.12 µM [inhibitor, full curve, poor fit] | 
CCOC(=O)c1[nH]nc(N)c1NC(=O)c1ccc(Cl)cc1Cl | inconclusive: 6.31 µM [inhibitor, partial curve, poor fit] | 
CC1C(=O)Nc2ccc(-c3csc(NC4CCCC4)n3)cc21 (stereo not given) | active: 15.8 µM | 
COc1cc(C2N=C(N)Nc3nc4ccccc4n32)ccc1OCCC(C)C (stereo not given) | inconclusive: 79.4 µM [inhibitor, partial curve, poor fit] | 
COC(=O)[C@H](CC(C)C)N(Cc1cn(CC2CCCCC2)nn1)S(=O)(=O)c1ccc(F)cc1Br | active: 10 µM | 
O=C(O)CC(c1cccc2ccccc12)N1Cc2ccccc2C1=O (stereo not given) |  | inconclusive: -32.8% [inhibitor]
CCc1nc2ccccc2n1CC(O)c1cccc(Br)c1 (stereo not given) |  | inactive: -11.6%
Cc1nc(-c2ccccc2)sc1C(=O)Nc1ccccc1 | inconclusive: 35.5 µM [inhibitor, partial curve, poor fit] | 
CCC(C)(C)C1CCC(=NNC(=S)Nc2ccccc2C(F)(F)F)CC1 (stereo not given) |  | inactive: -98.4%
CCOc1c(Cl)cc(CNc2nnnn2C)cc1OC | inconclusive: 112 µM [inhibitor, single point] | 
CCn1c(CC(=O)Nc2ccc(C)cc2)n[nH]c1=S | inconclusive: 89.1 µM [inhibitor, partial curve, poor fit] | 
COc1ccc(C(=O)N2CCC(N3CC4CC(C3)[C@H]3CCCC(=O)N3C4)CC2)cc1F (stereo not given in full) |  | inactive: 5.55%
CC(C)C[C@@H](CNCC(=O)[C@H](CC(C)C)NC(=O)c1[nH]cnc1C(=O)N[C@@H](C)CN)NC(=O)c1nc[nH]c1C(=O)N[C@@H](CC(=O)O)C(=O)O |  | inactive: 6.13%
CN(C)c1ccc(C=c2c3cc([N+](=O)[O-])ccc3n3c2cc(-c2ccccc2)[n+]3C)cc1 | active: 7.94 µM | 

SMILES | Potency | activity change, negative = inhibition
Cc1ccc(-c2noc(CNC(=O)c3ccc4c(c3)OCO4)n2)cc1 | inconclusive: 39.8 µM [inhibitor, single point] | 
CC(=O)Nc1ccc2oc(-c3ccccc3C)nc2c1 |  | inactive: 0.295%
Cc1cc(C)n(CCOC(=O)c2sc3ccccc3c2Cl)n1 | inconclusive: 35.5 µM [inhibitor, single point] | 
COc1cccc(OC)c1-c1cc(C(=O)NC2(C(=O)O)C3CC4CC(C3)CC2C4)nn1-c1ccc(C(=O)N(C)CCCN(C)C)cc1C(C)C (stereo not given) | inconclusive: 7.08 µM [inhibitor, full curve, poor fit] | 
S=C1SC2(CCCCCC2)NC2=C1CCCCC2 | inconclusive: 44.7 µM [inhibitor, partial curve] | 
O=C(CC1Sc2ccccc2NC1=O)NNc1cccc(Cl)c1Cl (stereo not given) | inconclusive: 35.5 µM [inhibitor, partial curve, poor fit] | 
CS(=O)(=O)Nc1ccc(C2=NN(C(=O)c3ccco3)C(c3ccccc3F)C2)cc1 (stereo not given) |  | inactive: -21.6%
O=C(NCC(c1ccco1)N1CCCCC1)c1cccs1 (stereo not given) | inconclusive: 50.1 µM [inhibitor, partial curve, poor fit] | 
O=C1CC(SC(=Nc2ccccc2)Nc2ccccc2)C(=O)N1c1ccc(Cl)c(Cl)c1 (stereo not given) | inconclusive: 12.6 µM [inhibitor, full curve, poor fit] | 
Cc1cc(C)c(C(=O)CSc2nnnn2C)cc1C |  | inactive: 2.09%
O=C(O)c1ccccc1-c1csc(-c2ccccc2)n1 |  | inactive: -5.2%
COc1cc(/C=C2/C(=O)ON=C2C)cc(Cl)c1O | inconclusive: 44.7 µM [inhibitor, partial curve, poor fit] | 
COCCN(CC(N)=O)S(=O)(=O)c1cccc(Cl)c1 |  | inactive: 29.4%
COCCCn1c(=S)[nH]c2ncccc2c1=O | inconclusive: 1.41 µM [inhibitor, full curve, poor fit] | 
Cc1ccc2c(COC(=O)CCc3ccc4c(c3)OCO4)cc(=O)oc2c1 | inconclusive: 5.62 µM [inhibitor, full curve] | 
Cc1cccc(CSc2cn(CC(=O)N3CCCC3)c3ccccc23)c1 | inconclusive: 100 µM [inhibitor, partial curve, poor fit] | 
O=C(Nc1c(-c2ccc3c(c2)OCO3)[nH][nH]c1=O)c1ccccc1 | active: 28.2 µM | 
S=C(NCCc1ccc(Cl)cc1)NC1CCCCC1 | active: 39.8 µM | 
Nc1nc(-c2ccc(F)cc2)cs1 |  | inactive: -9.64%
CN(C)c1cc(O)c(C(=S)Nc2ccccc2)c(N(C)C)c1 |  | inactive: -14.1%
C[n+]1ccc(/C=C/c2ccccc2O)c2ccccc21 | inconclusive: 50.1 µM [inhibitor, partial curve, poor fit] | 
CC(Sc1nnc(N)s1)C(=O)Nc1ccc2c(c1)OCO2 (stereo not given) |  | inactive: 1.7%
O=C(/C=C/c1ccc(Br)cc1)c1ccco1 |  | inactive: -4.79%
COc1cc(OC)c(-c2nnc(-c3ccc(OC)c(OC)c3OC)o2)cc1OC |  | inactive: -8.73%

SMILES | Potency | activity change, negative = inhibition
CC(=O)Nc1oc(-c2cccc3ccccc23)nc1C#N | inconclusive: 50.1 µM [inhibitor, partial curve, poor fit] | 
Cc1cc(NS(=O)(=O)c2ccc(NC(=S)NC(=O)/C=C/c3ccccc3)cc2)no1 | inconclusive: 15.8 µM [inhibitor, partial curve] | 
O=C(Cc1ccc(Cl)cc1)NCCc1ccc(F)cc1 | inconclusive: 44.7 µM [inhibitor, partial curve, poor fit] | 
CCOC(=O)c1oc2cc(O)c(CC)cc2c(=O)c1-c1ccc2c(c1)OCCO2 | inactive and inconclusive: 44.7 µM [inhibitor, partial curve, poor fit] | 
CC(=O)Nc1nc(C23CC4CC(CC(C4)C2)C3)cs1 |  | inactive: 38.3%
Cc1c(C(=O)OCC(=O)NCC2CCCO2)oc2ccccc12 (stereo not given) | inconclusive: 79.4 µM [inhibitor, partial curve, poor fit] | 
S=c1[nH]nc(-c2ccc(Cl)cc2)n1-c1cccnc1 | inconclusive: 35.5 µM [inhibitor, partial curve, poor fit] | 
COC(=O)c1c(C)[nH]c2ccccc12 | inconclusive: 25.1 µM [inhibitor, partial curve, poor fit] | 
OC[C@@H]1CNC[C@H]1C1CCN(Cc2ccc(Cl)c(F)c2)CC1 |  | inactive: 12.9%
CC(C)=CCC[C@H](C)C[C@@H]1Cc2[nH][nH]c(=O)c2[C@H](c2ccc(Cl)cc2)O1 | inconclusive: 1.78 µM [inhibitor, partial curve, poor fit] | 
O=C(CSc1cn(CCNC(=O)c2c(F)cccc2F)c2ccccc12)Nc1ccc2c(c1)OCCO2 |  | inactive: -15.4%
Cc1ccc(C)n1C1C(=O)N(Cc2ccc(C(C)C)cc2)c2ccc(Cl)cc21 (stereo not given) | inconclusive: 39.8 µM [inhibitor, partial curve, poor fit] | 
CCOc1ccccc1NC(=O)Cn1cnc2onc(-c3ccc(F)cc3)c2c1=O |  | inactive: -15.2%
CC(C)c1ccc(NC(=O)C2CC(=O)Nc3nc(N4CCOCC4)nc(N)c32)cc1 (stereo not given) | inconclusive: 89.1 µM [inhibitor, partial curve, poor fit] | 
O=C(NCc1ccc(S(=O)(=O)N2CCOCC2)cc1)c1cc(-c2ccncc2)nc2ccccc12 |  | inactive: 31.2%
COC(=O)C1=CN(c2cccc(C)c2)C=C(C(=O)OC)C1c1cc(OC)c(O)c([N+](=O)[O-])c1 | inconclusive: 6.31 µM [inhibitor, full curve, poor fit] | 
OC(c1ccccc1)(c1ccccc1)C1CCN(CCCOc2ccccc2)CC1 | inconclusive: 35.5 µM [inhibitor, partial curve] | 
Cc1cc(C)cc(NS(=O)(=O)c2ccc3[nH]cc(C(=O)N4CCCC4)c(=O)c3c2)c1 | inconclusive: 7.94 µM [inhibitor, full curve, poor fit] | 
CC1(C)C(=O)Nc2ccccc2N1C(=O)COC(=O)c1cnccn1 | inconclusive: 63.1 µM [inhibitor, single point] | 
CCCc1nc(C)c2c(=O)[nH]c(-c3cc(S(=O)(=O)N4CCN(CC)CC4)ccc3OCC)nn12 | inconclusive: 24.3 µM [inhibitor, partial curve, poor fit] | 
CCCSc1nnc(NC(=O)CSc2sc3c(O)cc(=O)[nH]c3c2C#N)s1 | active: 50.1 µM | 
CCOc1ccc(N(CCCCO)C(=S)NC(=O)c2ccc(C)c(Br)c2)cc1 | inconclusive: 89.1 µM [inhibitor, single point] | 
